Reference: PubChem BioAssay AID686937 (Drosophila RNAi Screening Center, 2013)
Purpose: 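Knock-downs that reduce output of a secreted reporter enzyme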 (primary screen). Cells: Drosophila S2 cells expressing secreted horseradish peroxidase. Reagents: long dsRNA against Drosophila genes. Timing: about 5.5 days (5 days dsRNA, then 12 h reporter induction). Conditions: reporter expression induced after 5 days of dsRNA, read 12 h later; inducer not stated. Detection: 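Chemiluminescent measurement of peroxidase in the medium 12 h after reporter induction, following 5 days of dsRNA, given as a z-score per plate; higher means more secretion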. Scale: z-score: higher = more reporter secreted into medium.
The deposit covers about 23,000 reagents; this is an unselected part of those with a known target gene and a result. 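Reduced-secretion tags in replicate 1 do not always agree with the z-scores; no criterion for assigning the tags was given.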 A plus sign joins genes that one reagent is predicted to hit. Not given: the amount of reagent.

Gene	amplicon	z-score, replicate 1	z-score, replicate 2	phenotype, replicate 1
Cdep (Chondrocyte-derived ezrin-like domain containing protein)	DRSC12028	0.27	-0.57	
Cdep (Chondrocyte-derived ezrin-like domain containing protein)	DRSC12220	0.21	0.47	
Cdep (Chondrocyte-derived ezrin-like domain containing protein)	DRSC12291	-1.5	0.23	
CG42394 + CG6567	DRSC12821	0.03	-0.41	
Ebp (Ejaculatory bulb protein)	DRSC04048	0.09	0.21	
kuk (kugelkern)	DRSC15730	0.18	0.21	
bdwf (bedwarfed)	DRSC15532	0.41	0.38	
CG34015	DRSC19140	0.43	-0.8	
CG33722 + CG18749	DRSC12674	0.27	0.28	
CG33722 + CG18749	DRSC15386	0.32	0.25	
elB (elbow B)	DRSC03527	0.12	0.29	
CG14185	DRSC10184	0.14	0.34	
CG30114	DRSC05707	0.75	0.49	
AdamTS-B (ADAM metallopeptidase with thrombospondin type 1 motif B)	DRSC17402	-0.19	-0.32	
AdamTS-B (ADAM metallopeptidase with thrombospondin type 1 motif B)	DRSC18346	0.45	0.64	
Spn42Dc (Serpin 42Dc)	DRSC05010	0.2	-0.16	
Tep4 (Thioester-containing protein 4)	DRSC03453	0.35	0.16	
Mat1 (Menage a trois 1)	DRSC07465	-0.69	-0.63	
CG7631	DRSC01873	0.06	0.05	
Ugt304A1 (UDP-glycosyltransferase family 304 member A1)	DRSC15127	0.35	0.28	
Dna2 (DNA replication helicase/nuclease 2)	DRSC18254	0.36	0.5	
CG2256	DRSC18220	0.26	0.6	
stc (shuttle craft)	DRSC03620	0.37	0.31	
CG17109	DRSC15172	0.51	0.24	
CG43446	DRSC13458	0.04	0.16	
sbr (small bristles)	DRSC19770	-3.26	-2.72	reduced secretion
sbr (small bristles)	DRSC20368	-2.8	-2.8	reduced secretion
CG1578	DRSC19729	0.12	0.34	
CG31365	DRSC15610	0.18	0.22	
Eh (Eclosion hormone)	DRSC16660	0.26	0.29	
CG13192	DRSC06317	0.1	0.07	
dod (dodo)	DRSC20577	-0.12	-0.06	
CG33465	DRSC05587	-0.47	0.01	
mus304 (mutagen-sensitive 304)	DRSC11372	0.09	0.08	
CG14860	DRSC14983	0.58	0.59	
niki (nimA-like kinase)	DRSC14285	0.35	-0.03	
CG31533	DRSC13018	0.07	0.49	
dor (deep orange)	DRSC18765	0.03	0.14	
CG34301	DRSC12704	-0.38	0.18	
mthl14 (methuselah-like 14)	DRSC07865	0.4	0.25	
CG12481	DRSC19461	0.41	0.21	
CG5727	DRSC02882	0.01	0.21	
PDZ-GEF (PDZ domain-containing guanine nucleotide exchange factor)	DRSC03231	0.22	0.23	
loqs (loquacious)	DRSC02997	0.61	0.05	
IntS3 (Integrator 3)	DRSC21215	-0.27	0.03	
sens (senseless)	DRSC09263	-4.01	-3.78	reduced secretion
Ubc2 (Ubiquitin conjugating enzyme 2)	DRSC01137	0.48	0.07	
Ubc2 (Ubiquitin conjugating enzyme 2)	DRSC03468	-0.18	0.08	
CG2681	DRSC18464	0.16	0.13	
Apt1 (Acyl-protein thioesterase 1)	DRSC10348	0.13	-0.03	
Taf2 (TBP-associated factor 2)	DRSC11298	-0.01	-0.37	
by (blistery)	DRSC16482	0.34	0.2	
CG12935 + Nop10	DRSC07025	0.11	0.35	
CG2975	DRSC00556	0.22	0.28	
CG18258	DRSC19798	0.16	0.2	
CG15577	DRSC18065	0.23	-0.14	
Mst33A	DRSC03371	0.13	0.12	
lcs (la costa)	DRSC20580	0.51	0.32	
CG15545	DRSC15083	0.5	0.55	
CG34386	DRSC06467	-1.54	-1	reduced secretion
CG34386	DRSC06468	0.23	0.29	
gas (gasoline)	DRSC04521	0.04	0.31	
bgcn (benign gonial cell neoplasm)	DRSC04062	0.3	0.35	
bgcn (benign gonial cell neoplasm)	DRSC04063	0.22	0.18	
CG32432	DRSC11703	-4.08	-3.89	reduced secretion
CG32432	DRSC11704	-2.22	-1.36	reduced secretion
CG32432	DRSC11744	0.23	0.01	
CG30148	DRSC06391	0.74	0.51	
rpr (reaper)	DRSC11390	-0.65	-0.07	
LManI (Lysosomal alpha-mannosidase I)	DRSC02838	-0.08	0.19	
mRpL41 (mitochondrial ribosomal protein L41)	DRSC06257	0	0.18	
CG8006	DRSC10949	0.24	0.16	
CG5687	DRSC08568	-3.38	-3.12	reduced secretion
Gr2a (Gustatory receptor 2a)	DRSC18603	0.39	0.45	
axed (axundead)	DRSC08833	0.63	0.46	
axed (axundead)	DRSC10982	0.38	0.33	
Xrcc2 (X-ray repair cross complementing 2)	DRSC19984	-0.15	-1.08	
CG14034	DRSC02359	0.33	0.19	
Pfdn4 (Prefoldin 4)	DRSC09761	0.28	0.33	
Wsck	DRSC13682	0.05	0.34	
bbg (big bang)	DRSC11077	0.63	0.56	
bbg (big bang)	DRSC11079	0.19	0.35	
